The subject of the assay is RAW 264.7. In words: cell viability (MTT) relative to vehicle control; higher = more viable cells. The note with it: stimulus: HMGB1 5 ug/ml, 18 h.
Where [1] appears, read: compound concentration: 1 ug/ml.

Where “and” joins values, the source holds several entries; their conditions need not be identical. Identical values can stand only once. Counter-ions that a name gives are not always drawn. ± gives the standard deviation of the averaged measurements. The list shows a part of the results. Many values rest on one well or one pass, so single values are uncertain.

`OC[C@H]1O[C@@H](n2cnc3c(N[C@H]4CCC[C@@H]4O)ncnc32)[C@@H](O)C1O` (stereo partly drawn) [Adenosine, N-(2-hydroxycyclopentyl)-, (1S-trans)- [CAS]]: where the note is “compound concentration: 3 uM”, the cell viability worked out at 97.6%.
Turning to `O=C1NC(=O)/C(=C/c2ccc3c(c2)OC(F)(F)O3)S1`, where the note is “compound concentration: 3 uM”, the cell viability was found to be 102%.
Regarding `CCOc1ccccc1OC(c1ccccc1)C1CNCCO1` (centres undefined) [Reboxetine mesylate], the cell viability (compound concentration: 3 uM) was 112%.
In the case of `O=c1[nH]cnc2c1ncn2[C@@H]1O[C@H](CO)[C@@H](O)[C@H]1O` [Inosine], the cell viability under setting [1] turned out to be 105%.
For the molecule `O=c1[nH]cnc2c1ncn2[C@@H]1O[C@H](CO)[C@@H](O)[C@H]1O`, the cell viability (compound concentration: 3 uM) amounted to 111%.
Turning to `CN(C)CCCN1c2ccccc2Sc2ccc(Cl)cc21` [Chlorpromazine], the cell viability (compound concentration: 3 uM) was 110%.
As to `CN(C)CCCN1c2ccccc2Sc2ccc(Cl)cc21`, under “compound concentration: 3 uM”, the cell viability is 98.2%.
In the case of `CN(C)CCCN1c2ccccc2Sc2ccc(Cl)cc21` [Chlorpromazine hydrochloride], the cell viability (compound concentration: 3 uM) was 96.5 ± 8%.
On the same count and under the same terms, in the case of `O=c1ccc2ccccc2o1` it was 110%.
`O=c1ccc2ccccc2o1` [Coumarin]: the cell viability under setting [1] turned out to be 97.1%.
For the molecule `COc1ccc(-c2coc3ccc(OC4OC(COC(C)=O)C(OC(C)=O)C(OC(C)=O)C4OC(C)=O)c(OC(C)=O)c3c2=O)cc1` (centres undefined), the cell viability under setting [1] stood at 113%.
Take `CNC(=O)[C@H]1O[C@@H](n2cnc3c(NCc4cccc(I)c4)nc(Cl)nc32)[C@H](O)[C@@H]1O` [Chloro-IB-MECA]: the cell viability (compound concentration: 3 uM) came out at 106%.
In the case of `OCc1ccccc1O`, under “compound concentration: 3 uM”, the cell viability is 101%.
Turning to `CCOC(=O)[C@@](C)(N)Cc1ccc(O)c(O)c1` [Methyldopate hydrochloride], the cell viability (compound concentration: 3 uM) stood at 89.9%.
With `CCOC(=O)[C@@](C)(N)Cc1ccc(O)c(O)c1`, the cell viability (compound concentration: 3 uM) amounted to 112%.
Still for that read-out and setting: in the case of `O=C(c1ccccc1)c1ccc2n1CCC2C(=O)O` (centres undefined) [Ketorolac tromethamine] it was 87.9%.
Same read-out and setting: under `O=C(c1ccccc1)c1ccc2n1CCC2C(=O)O` (centres undefined) stands 94% and 106%; under `O=C(c1ccccc1)c1ccc2n1CCC2C(=O)O` (centres undefined) [Ketorolac tris salt], 96.3%.
As for `COc1c(N2CCNC(C)C2)c(F)cc2c(=O)c(C(=O)O)cn(C3CC3)c12` (centres undefined), the cell viability (compound concentration: 3 uM) was found to be 103%.
On the same count and under the same terms, under `COc1c(N2CCNC(C)C2)c(F)cc2c(=O)c(C(=O)O)cn(C3CC3)c12` (centres undefined) [Gatifloxacin] stands 95.3 ± 12%; under `CC(C)(O)c1ccccc1CC[C@@H](SCC1(CC(=O)O)CC1)c1cccc(/C=C/c2ccc3ccc(Cl)cc3n2)c1`, 103% and 107%.
In the case of `CC(C)(O)c1ccccc1CC[C@@H](SCC1(CC(=O)O)CC1)c1cccc(/C=C/c2ccc3ccc(Cl)cc3n2)c1` [Montelukast], under “compound concentration: 3 uM”, the cell viability was 117 ± 17%.
As to `O=C1NC(=O)C(c2ccccc2)(c2ccccc2)N1` [5,5-Diphenylhydantoin], the cell viability (compound concentration: 3 uM) was 109%.
On to `O=C1NC(=O)C(c2ccccc2)(c2ccccc2)N1` [Phenytoin], for which the cell viability (compound concentration: 3 uM) came out at 114%.
Still for that read-out and setting: in the case of `CCN[C@@H]1C[C@H](N)[C@@H](O[C@H]2OC(CN)=CC[C@H]2N)[C@H](O)[C@H]1O[C@H]1OC[C@](C)(O)[C@H](NC)[C@H]1O` it was 108%.
Same read-out and setting: under `FC(F)(F)COCC(F)(F)F` stands 104%.
`COc1cccc2c1C(=O)CC(c1ccccc1)O2` (centres undefined) [5-Methoxyflavanone]: under setting [1], the cell viability came out at 101%.
As for `CN1Cc2c(N)cccc2C(c2ccccc2)C1` (centres undefined) [Nomifensine maleate], for the setting “compound concentration: 3 uM”, the cell viability worked out at 105 ± 16%.
Turning to `CN1Cc2c(N)cccc2C(c2ccccc2)C1` (centres undefined), the cell viability (compound concentration: 3 uM) worked out at 98.2%.
For `COc1cc(/C=C/CO)cc(OC)c1O` [Sinapyl Alcohol], the cell viability under setting [1] is 112%.
`CC(=O)Oc1cccc(C)c1` [meta-CRESYL ACETATE]: the cell viability (compound concentration: 3 uM) was 109%.
Still for that read-out and setting: under `c1ccc(CNc2ncnc3nc[nH]c23)cc1` [Aminopurine, 6-benzyl] stands 100%; under `C=C(C)[C@@H]1CC=C(CO)CC1`, 134%.
On the same count and under the same terms, under `COc1cccc(C(=O)NCCN2CCN(c3ccc(Cl)cc3)CC2)c1` stands 99%.
As for `C[C@@H]1C(=O)NC2=Nc3cccc(Cl)c3CN21` [Quazinone], the cell viability (compound concentration: 3 uM) is 104%.
Turning to `COC(=O)Nc1nc2cc([S+]([O-])c3ccccc3)ccc2[nH]1` (centres undefined) [Oxfendazol], for the setting “compound concentration: 3 uM”, the cell viability was determined as 81.8%.
Regarding `COC(=O)Nc1nc2cc([S+]([O-])c3ccccc3)ccc2[nH]1` (centres undefined), for the setting “compound concentration: 3 uM”, the cell viability turned out to be 78.7%.
The same measure, in the same setting: under `COC(=O)Nc1nc2cc([S+]([O-])c3ccccc3)ccc2[nH]1` (centres undefined) [Oxfendazole] stands 85.9%.
As for `Oc1cc2c(cc1O)C(c1ccccc1)CNCC2` (racemic), the cell viability (compound concentration: 3 uM) was 98.4%.
Regarding `NC1CCN(c2nc3c(cc2F)c(=O)c(C(=O)O)cn3-c2ccc(F)cc2F)C1` (centres undefined) [Tosufloxacin], the cell viability (compound concentration: 3 uM) was found to be 98.4%.
Turning to `NC1CCN(c2nc3c(cc2F)c(=O)c(C(=O)O)cn3-c2ccc(F)cc2F)C1` (centres undefined), the cell viability (compound concentration: 3 uM) worked out at 94.5%.
Consider `NC1CCN(c2nc3c(cc2F)c(=O)c(C(=O)O)cn3-c2ccc(F)cc2F)C1` (centres undefined) [Tosufloxacin hydrochloride], for which the cell viability (compound concentration: 3 uM) was 111%.
Turning to `C=CCCCCCCCCC(=O)[O-].C=CCCCCCCCCC(=O)[O-].[Zn+2]`, where the note is “compound concentration: 3 uM”, the cell viability amounted to 104%.
In the case of `Cc1cc(N)c2ccccc2[n+]1CCCCCCCCCC[n+]1c(C)cc(N)c2ccccc21` [Dequalinium dichloride], for the setting “compound concentration: 3 uM”, the cell viability was determined as 77%.
Turning to `Cc1cc(N)c2ccccc2[n+]1CCCCCCCCCC[n+]1c(C)cc(N)c2ccccc21` [Dequalinium chloride hydrate], the cell viability (compound concentration: 3 uM) was determined as 98.2%.
Take `Cc1cc(N)c2ccccc2[n+]1CCCCCCCCCC[n+]1c(C)cc(N)c2ccccc21`: the cell viability (compound concentration: 3 uM) is 98.2%.
In the case of `Nc1ccn([C@@H]2CS[C@H](CO)O2)c(=O)n1` [Lamivudine], the cell viability (compound concentration: 3 uM) turned out to be 116%.
In the case of `Nc1ccn([C@@H]2CS[C@H](CO)O2)c(=O)n1`, the cell viability (compound concentration: 3 uM) was 93%.
With `Nc1c2c(nc3ccccc13)CCCC2O` (centres undefined) [Hydroxytacrine maleate], the cell viability (compound concentration: 3 uM) amounted to 106%.
Still for that read-out and setting: in the case of `Nc1c2c(nc3ccccc13)CCCC2O` (centres undefined) [Hydroxytacrine] it was 102%; in that of `COc1ccccc1OCC(O)COC(N)=O` (centres undefined), 109%.
`COc1ccccc1OCC(O)COC(N)=O` (centres undefined) [Methocarbamol]: for the setting “compound concentration: 3 uM”, the cell viability came out at 103%.
For the molecule `CCN(CC)CCCCCCCCOC(=O)c1cc(OC)c(OC)c(OC)c1` [TMB-8 hydrochloride], the cell viability (compound concentration: 3 uM) worked out at 108%.
For the molecule `CO/N=C(\C(=O)N[C@@H]1C(=O)N2C(C(=O)OC(C)OC(C)=O)=C(COC(N)=O)CS[C@H]12)c1ccco1` (some centres undefined), for the setting “compound concentration: 3 uM”, the cell viability was determined as 110%.
Turning to `N#CC(C#N)=C(N)/C(C#N)=C/c1cc(O)c(O)c(O)c1` [Tyrphostin 51], under “compound concentration: 3 uM”, the cell viability stood at 117%.
With `O=C(O)CP(=O)(O)O` [Phosphonoacetic acid], the cell viability (compound concentration: 3 uM) came to 114%.
In the case of `Cn1ccc2cc3c(cc21)CCN3C(=O)Nc1cccnc1`, for the setting “compound concentration: 3 uM”, the cell viability was determined as 113%.
`CC1=C(C2=C(C)C(C(C)C)C3=C(C(=O)C(O)C3O)C2O)C(O)C2=C(C(O)C(O)C2=O)C1C(C)C` (centres undefined): the cell viability under setting [1] came to 102%.
Consider `CC1(C)[C@@H](OC(=O)CCC(=O)O)CC[C@]2(C)[C@H]3C(=O)C=C4[C@@H]5C[C@@](C)(C(=O)O)CC[C@]5(C)CC[C@@]4(C)[C@]3(C)CC[C@@H]12` [Carbenoxolone disodium salt], for which, under “compound concentration: 3 uM”, the cell viability was found to be 90.4%.
Regarding `CC1(C)[C@@H](OC(=O)CCC(=O)O)CC[C@]2(C)[C@H]3C(=O)C=C4[C@@H]5C[C@@](C)(C(=O)O)CC[C@]5(C)CC[C@@]4(C)[C@]3(C)CC[C@@H]12`, for the setting “compound concentration: 3 uM”, the cell viability is 104%.
Regarding `CC(CN(C)C)CN1c2ccccc2Sc2ccccc21` (centres undefined) [Trimeprazine tartrate], for the setting “compound concentration: 3 uM”, the cell viability worked out at 87.6%.
For the molecule `CC(CN(C)C)CN1c2ccccc2Sc2ccccc21` (centres undefined), the cell viability (compound concentration: 3 uM) worked out at 107%.
Regarding `C#C[C@]1(O)CC[C@H]2[C@@H]3CCC4=CC(=O)CC[C@@H]4[C@H]3CC[C@@]21CC`, the cell viability (compound concentration: 3 uM) stood at 99.6%.
Consider `C#C[C@]1(O)CC[C@H]2[C@@H]3CCC4=CC(=O)CC[C@@H]4[C@H]3CC[C@@]21CC` [Norgestrel-(-)-D], for which the cell viability (compound concentration: 3 uM) stood at 118%.
`C#C[C@]1(O)CC[C@H]2[C@@H]3CCC4=CC(=O)CC[C@@H]4[C@H]3CC[C@@]21CC` [Levonorgestrel]: the cell viability (compound concentration: 3 uM) is 103%.
Turning to `N[C@@H](Cc1ccc(Cl)cc1)C(=O)O` [L-4-Chlorophenylalanine], under setting [1], the cell viability turned out to be 94.9%.
Take `N=C(N)NCCN1CCCCCCC1`: for the setting “compound concentration: 3 uM”, the cell viability is 107%.
As for `N=C(N)NCCN1CCCCCCC1` [Guanethidine sulfate], the cell viability (compound concentration: 3 uM) was 105%.
On the same count and under the same terms, under `N#C/C(=C\c1ccc(O)c(O)c1)C(=O)NCc1ccccc1` [Tyrphostin AG 490] stands 111%; under `CC(=O)OCC(=O)[C@H]1CC[C@H]2[C@@H]3CCC4=CC(=O)CC[C@]4(C)[C@H]3CC[C@]12C`, 114%.
With `CC(=O)OCC(=O)[C@H]1CC[C@H]2[C@@H]3CCC4=CC(=O)CC[C@]4(C)[C@H]3CC[C@]12C` [deoxycorticosterone acetate], the cell viability under setting [1] turned out to be 108%.
Consider `C#CCn1c(=O)c2c(ncn2C)n(C)c1=O` [3,7-Dimethyl-1-propargylxanthine], for which the cell viability (compound concentration: 3 uM) stood at 99%.
`O=C(/C=C/c1ccc(O)c(O)c1)O[C@@H]1C[C@](O)(C(=O)O)C[C@@H](O)[C@H]1O` [Chlorogenic Acid]: the cell viability under setting [1] came to 77.3%.
Same read-out and setting: in the case of `COc1ccc2c(=O)cc(-c3ccccc3)oc2c1O` it was 83.2%.
With `C=CCOC(Cn1ccnc1)c1ccc(Cl)cc1Cl` (centres undefined), the cell viability (compound concentration: 3 uM) was determined as 113%.
On the same count and under the same terms, in the case of `C=CCOC(Cn1ccnc1)c1ccc(Cl)cc1Cl` (centres undefined) [Enilconazole] it was 82.5%.
As to `CC(=O)O[C@H]1CC[C@@]2(C)C(=CC[C@H]3[C@@H]4CC[C@H](C(C)=O)[C@@]4(C)CC[C@@H]32)C1` [Pregnenolone acetate], the cell viability under setting [1] was 110%.
Take `CC(=O)OCC(=O)[C@@]1(OC(C)=O)[C@@H](C)C[C@H]2[C@@H]3C[C@H](F)C4=CC(=O)C=C[C@]4(C)[C@@]3(F)[C@@H](O)C[C@@]21C` [Diflorasone Diacetate]: for the setting “compound concentration: 3 uM”, the cell viability turned out to be 99%.
With `C[C@]1(Cn2ccnn2)[C@H](C(=O)O)N2C(=O)C[C@H]2S1(=O)=O` [Tazobactam], the cell viability (compound concentration: 3 uM) is 112%.
For `O=c1cc(-c2ccccc2)oc2c1ccc1ccccc12` [7,8-Benzoflavone; alpha-Naphthoflavone], under setting [1], the cell viability stood at 99.8%.
As for `CC(CN(C)C)C(C)(O)Cc1ccc(Cl)cc1` (centres undefined) [Clobutinol hydrochloride], the cell viability (compound concentration: 3 uM) turned out to be 109%.
With `CC[C@@H](CO)NCCN[C@@H](CC)CO` [Ethambutol dihydrochloride], the cell viability (compound concentration: 3 uM) came out at 90.4%.
Same read-out and setting: in the case of `CC[C@@H](CO)NCCN[C@@H](CC)CO` it was 109%; in that of `CN(C)CCC(c1ccc(Br)cc1)c1ccccn1` (single isomer, unassigned; (+)) [(+)-Brompheniramine maleate], 93.5%.
